# Some entries share one result that the patent states for a list of compounds. For at least one compound, name, drawing or mass did not settle the structure.
# Tested on: TNF-α production in mouse blood
# Test: TNF-α production suppressing ability (in vitro)-2, LPS added to mouse blood
# Format: cell-based
# Conditions: at 10 μM or lower; BALB/c mouse blood, LPS 5 μg/mL, 4 hours
row,Compound,TNF-α production suppression rate
1,CC(=O)N1CCC(Nc2cc(-c3cccc(C#N)c3)cc3ccncc23)C1 (racemic) [Example 2-N-501],≥ 50%
2,"N#Cc1cccc(-c2cc(NC3CCNCC3)c3cnccc3c2)c1 [Example 1-N-1, 3-(8-(piperidin-4-ylamino)isoquinolin-6-yl)benzonitrile]",≥ 50%
3,N#Cc1cccc(-c2cc(NC3CCNC3)c3cnccc3c2)c1 (centres unmarked) [Example 1-N-3],≥ 50%
4,N#Cc1cccc(-c2cc(NC3CNC3)c3cnccc3c2)c1 [Example 1-N-4],≥ 50%
5,N#Cc1cccc(-c2cc(NCC3CCNCC3)c3cnccc3c2)c1 [Example 1-N-12],≥ 50%
6,N#Cc1cccc(-c2cc(NCC3CCCNC3)c3cnccc3c2)c1 (centres unmarked) [Example 1-N-13],≥ 50%
7,N#Cc1cccc(-c2cc(NCC3CCNC3)c3cnccc3c2)c1 (centres unmarked) [Example 1-N-15],≥ 50%
8,N#Cc1cccc(-c2cc(NCCN3CCCC3)c3cnccc3c2)c1 [Example 1-N-20],≥ 50%
9,N#Cc1cccc(-c2cc(NCCN3CCOCC3)c3cnccc3c2)c1 [Example 1-N-21],≥ 50%
10,N#Cc1cccc(-c2cc(NCCCO)c3cnccc3c2)c1 [Example 1-N-24],≥ 50%
11,OCc1ccc(-c2cc(NC3CCNCC3)c3cnccc3c2)cc1 [Example 1-N-36],≥ 50%
12,CCS(=O)(=O)N1CCC(Nc2cc(-c3cccc(Cl)c3)cc3ccncc23)CC1 [Example 1-NP-6],≥ 50%
13,CCS(=O)(=O)N1CCC(Nc2cc(-c3ccc(F)c(C#N)c3)cc3ccncc23)CC1 [Example 1-NP-10],≥ 50%
14,O=C(c1cccnc1)N1CCC(Nc2cc(-c3cccc(F)c3)cc3ccncc23)CC1 [Example 1-NP-16],≥ 50%
15,N#Cc1cc(-c2cc(NC3CCN(C(=O)c4cccnc4)CC3)c3cnccc3c2)ccc1F [Example 1-NP-18],≥ 50%
16,O=C(c1cccnc1)N1CCC(Nc2cc(-c3cccc(CO)c3)cc3ccncc23)CC1 [Example 1-NP-23],≥ 50%
17,"N#Cc1cccc(-c2cc(NC3CCN(C(=O)C4CC4)CC3)c3cnccc3c2)c1 [Example 2-N-2, 3-(8-(1-(cyclopropanecarbonyl)piperidin-4-ylamino)isoquinolin-6-yl)benzonitrile]",≥ 50%
18,N#Cc1cccc(-c2cc(NC3CCN(C(=O)c4cccc(F)c4)CC3)c3cnccc3c2)c1 [Example 2-N-11],≥ 50%
19,COc1cccc(C(=O)N2CCC(Nc3cc(-c4cccc(C#N)c4)cc4ccncc34)CC2)c1 [Example 2-N-23],≥ 50%
20,CN(C)c1cccc(C(=O)N2CCC(Nc3cc(-c4cccc(C#N)c4)cc4ccncc34)CC2)c1 [Example 2-N-26],≥ 50%
21,N#Cc1cccc(-c2cc(NC3CCN(C(=O)c4cccnc4)CC3)c3cnccc3c2)c1 [Example 2-N-28],≥ 50%
22,N#Cc1cccc(-c2cc(NC3CCN(C(=O)c4ccccc4)CC3)c3cnccc3c2)c1 [Example 2-N-31],≥ 50%
23,N#Cc1cccc(-c2cc(NC3CCN(C(=O)c4ccc(CO)cc4)CC3)c3cnccc3c2)c1 [Example 2-N-32],≥ 50%

row,Compound,TNF-α production suppression rate
1,N#Cc1cccc(-c2cc(NC3CCN(C(=O)COc4ccccc4)CC3)c3cnccc3c2)c1 [Example 2-N-34],≥ 50%
2,N#Cc1cccc(-c2cc(NC3CCN(C(=O)c4ccccn4)CC3)c3cnccc3c2)c1 [Example 2-N-37],≥ 50%
3,N#Cc1cccc(-c2cc(NC3CCN(C(=O)c4ccncc4)CC3)c3cnccc3c2)c1 [Example 2-N-38],≥ 50%
4,N#Cc1cccc(-c2cc(NC3CCN(C(=O)c4cncnc4)CC3)c3cnccc3c2)c1 [Example 2-N-40],≥ 50%
5,N#Cc1cccc(-c2cc(NC3CCN(C(=O)c4cscn4)CC3)c3cnccc3c2)c1 [Example 2-N-45],≥ 50%
6,N#Cc1cccc(-c2cc(NC3CCN(C(=O)c4cccs4)CC3)c3cnccc3c2)c1 [Example 2-N-47],≥ 50%
7,N#Cc1cccc(-c2cc(NC3CCN(C(=O)c4ccco4)CC3)c3cnccc3c2)c1 [Example 2-N-49],≥ 50%
8,N#Cc1cccc(-c2cc(NC3CCN(C(=O)c4cnccc4C#N)CC3)c3cnccc3c2)c1 [Example 2-N-50],≥ 50%
9,N#Cc1cccc(-c2cc(NC3CCN(C(=O)c4cccnc4C(F)(F)F)CC3)c3cnccc3c2)c1 [Example 2-N-61],≥ 50%
10,Cc1cccnc1C(=O)N1CCC(Nc2cc(-c3cccc(C#N)c3)cc3ccncc23)CC1 [Example 2-N-65],≥ 50%
11,N#Cc1cccc(-c2cc(NC3CCN(C(=O)c4ccnc(F)c4)CC3)c3cnccc3c2)c1 [Example 2-N-68],≥ 50%
12,N#Cc1cccc(-c2cc(NC3CCN(C(=O)c4ccnc(Cl)c4)CC3)c3cnccc3c2)c1 [Example 2-N-69],≥ 50%
13,Cc1cccc(C(=O)N2CCC(Nc3cc(-c4cccc(C#N)c4)cc4ccncc34)CC2)n1 [Example 2-N-72],≥ 50%
14,N#Cc1cccc(-c2cc(NC3CCN(C(=O)c4cc(Cl)nc(Cl)c4)CC3)c3cnccc3c2)c1 [Example 2-N-84],≥ 50%
15,N#Cc1cccc(-c2cc(NC3CCN(C(=O)c4ccc(Cl)nc4Cl)CC3)c3cnccc3c2)c1 [Example 2-N-86],≥ 50%
16,Cc1ccc(C(=O)N2CCC(Nc3cc(-c4cccc(C#N)c4)cc4ccncc34)CC2)c(C)n1 [Example 2-N-88],≥ 50%
17,Cc1cc(C)c(C(=O)N2CCC(Nc3cc(-c4cccc(C#N)c4)cc4ccncc34)CC2)cn1 [Example 2-N-89],≥ 50%
18,N#Cc1cccc(-c2cc(NC3CCN(C(=O)CN)CC3)c3cnccc3c2)c1 [Example 2-N-106],≥ 50%
19,CC(=O)NCCC(=O)N1CCC(Nc2cc(-c3cccc(C#N)c3)cc3ccncc23)CC1 [Example 2-N-108],≥ 50%
20,COc1ccc(C(=O)N2CCC(Nc3cc(-c4ccc(F)c(C#N)c4)cc4ccncc34)CC2)cc1OC [Example 2-N-241],≥ 50%
21,N#Cc1cc(-c2cc(NC3CCN(C(=O)c4cc(O)ccc4F)CC3)c3cnccc3c2)ccc1F [Example 2-N-260],≥ 50%
22,N#Cc1cc(-c2cc(NC3CCN(C(=O)c4ccc(-c5ccccn5)cc4)CC3)c3cnccc3c2)ccc1F [Example 2-N-267],≥ 50%
23,N#Cc1cc(-c2cc(NC3CCN(C(=O)Cc4ccc(Cl)nc4)CC3)c3cnccc3c2)ccc1F [Example 2-N-277],≥ 50%

row,Compound,TNF-α production suppression rate
1,Cc1ncccc1C(=O)N1CC(Nc2cc(-c3cccc(C#N)c3)cc3ccncc23)C1 [Example 2-N-307],≥ 50%
2,N#Cc1cccc(-c2cc(NC3CN(C(=O)c4ccnc(F)c4)C3)c3cnccc3c2)c1 [Example 2-N-310],≥ 50%
3,N#Cc1cccc(-c2cc(NC3CN(C(=O)c4cccc(F)n4)C3)c3cnccc3c2)c1 [Example 2-N-312],≥ 50%
4,N#Cc1ccc(C(=O)N2CC(Nc3cc(-c4cccc(C#N)c4)cc4ccncc34)C2)cc1 [Example 2-N-314],≥ 50%
5,N#Cc1cccc(-c2cc(NC3CN(C(=O)CO)C3)c3cnccc3c2)c1 [Example 2-N-315],≥ 50%
6,CC(=O)N1CCN(c2cc(-c3cccc(C#N)c3)cc3ccncc23)CC1 [Example 2-N-509],≥ 50%
7,CC(=O)N1CCC(C(=O)N2CCC(Nc3cc(-c4cccc(C#N)c4)cc4ccncc34)CC2)CC1 [Example 2-N-601],≥ 50%
8,N#Cc1cccc(-c2cc(NC3CCN(C(=O)C4CN(C(=O)C5CC5)C4)CC3)c3cnccc3c2)c1 [Example 2-N-612],≥ 50%
9,O=C(C1CNC1)N1CCC(Nc2cc(-c3cccc(Cl)c3)cc3ccncc23)CC1 [Example 2-N-619],≥ 50%
10,CC(=O)N1CC(CN2CCC(Nc3cc(-c4cccc(C#N)c4)cc4ccncc34)CC2)C1 [Example 2-N-801],≥ 50%
11,O=C(C1CC1)N1CCC(Nc2cc(-c3ccccc3)cc3ccncc23)CC1 [Example 2-NP-9],≥ 50%
12,Cc1cccc(-c2cc(NC3CCN(S(C)(=O)=O)CC3)c3cnccc3c2)c1 [Example 2-NP-42],≥ 50%
13,CS(=O)(=O)N1CCC(Nc2cc(-c3ccccc3)cc3ccncc23)CC1 [Example 2-NP-58],≥ 50%
14,CC(=O)N1CCC(Oc2cc(-c3cccc(C#N)c3)cc3ccncc23)CC1 [Example 2-o-1],≥ 50%
15,N#Cc1cccc(-c2cc(OC3CCN(C(=O)c4ccnnc4)CC3)c3cnccc3c2)c1 [Example 2-o-11],≥ 50%
16,Cn1cncc1C(=O)N1CCC(Oc2cc(-c3cccc(C#N)c3)cc3ccncc23)CC1 [Example 2-o-14],≥ 50%
17,Cn1nccc1C(=O)N1CCC(Oc2cc(-c3cccc(C#N)c3)cc3ccncc23)CC1 [Example 2-o-15],≥ 50%
18,N#Cc1cccc(-c2cc(OC3CCN(C(=O)c4cccnc4)CC3)c3cnccc3c2)c1 [Example 2-o-23],≥ 50%
19,N#Cc1cccc(-c2cc(OC3CCN(C(=O)c4ccc(C(F)(F)F)nc4)CC3)c3cnccc3c2)c1 [Example 2-o-25],≥ 50%
20,N#Cc1cccc(-c2cc(OC3CCN(C(=O)Cn4ccnc4)CC3)c3cnccc3c2)c1 [Example 2-o-44],≥ 50%
21,N#Cc1cccc(-c2cc(OC3CCN(C(=O)CO)CC3)c3cnccc3c2)c1 [Example 2-o-45],≥ 50%
22,N#Cc1cccc(-c2cc(OC3CN(C(=O)c4ccnnc4)C3)c3cnccc3c2)c1 [Example 2-o-67],≥ 50%

# Reference: US8299055B2, “8-substituted isoquinoline derivative and the use thereof” (Asahi Kasei Pharma Corporation, priority 2008, dated 2012)
